Taken from: PubChem BioAssay AID1159578 (Peter MacCallum Cancer Centre, 2015)
Assay: 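Knock-downs that alter how fast lymphatic endothelial cells migrate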 (primary screen). Cells: human lymphatic endothelial cells. Reagents: siRNA pool against human genes, 40 nM. Time to read-out: 48 h after transfection. Measured: 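Cells stained with dye and imaged after a scratch; covered wound area and nuclei counted, duplicates averaged, migration set against mock wells and turned into a robust z-score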. Direction: migration robust z-score: higher = faster migration into the scratch; nuclei per well: higher = more cells in the well. Rule for the call: 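Migration changed when robust z exceeds 2 or falls below -2 and mean nuclei number is at least 3300; otherwise not called changed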. Calls: active = migration changed; inactive = no migration change, or too few cells.
This is one part, drawn at random, of about 18,000 reagents. Of all reagents, about 1,030 (5.7%) got an active call. 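Inactive calls also include pools with fewer than 3300 nuclei, whose migration was not assessed.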 Raw values vary from plate to plate and are shown uncorrected. Further read-outs or replicates are left out here.

Which result is listed for FZD6 (frizzled class receptor 6)?
migration robust z-score: 0.78; migration class with cell-count check: migration z between -2 and 2; enough cells; nuclei per well, duplicate mean: 6564; Outcome: inactive

What is on record for FNBP1 (formin binding protein 1)?
migration robust z-score: 1.12; migration class with cell-count check: migration z between -2 and 2; enough cells; nuclei per well, duplicate mean: 5548; Outcome: inactive

For GALNT18 (polypeptide N-acetylgalactosaminyltransferase 18), what was measured?
migration robust z-score: 0.96; migration class with cell-count check: migration z between -2 and 2; enough cells; nuclei per well, duplicate mean: 5346; Outcome: inactive

What is on record for ZNF275 (zinc finger protein 275)?
migration robust z-score: -0.4; migration class with cell-count check: migration z between -2 and 2; enough cells; nuclei per well, duplicate mean: 5460; Outcome: inactive

Individual results from the entries so far.
Under “migration class with cell-count check”, ZNF275 (zinc finger protein 275) has migration z between -2 and 2; enough cells
GALNT18 (polypeptide N-acetylgalactosaminyltransferase 18), migration class with cell-count check → migration z between -2 and 2; enough cells

Further results follow:
With MRPL12 (mitochondrial ribosomal protein L12), what does the deposit list?
migration robust z-score: -0.08; migration class with cell-count check: migration z between -2 and 2; enough cells; nuclei per well, duplicate mean: 6337; Outcome: inactive

What did the screen give for MIER2 (MIER family member 2)?
migration robust z-score: 0.17; migration class with cell-count check: migration z between -2 and 2; enough cells; nuclei per well, duplicate mean: 5443; Outcome: inactive

For TNFSF13 (TNF superfamily member 13), what was measured?
migration robust z-score: -2.15; migration class with cell-count check: migration z below -2; enough cells; nuclei per well, duplicate mean: 5092; Outcome: active

For MEIOC (meiosis specific with coiled-coil domain), what was measured?
migration robust z-score: -1.02; migration class with cell-count check: migration z between -2 and 2; enough cells; nuclei per well, duplicate mean: 5633; Outcome: inactive

For MBIP (MAP3K12 binding inhibitory protein 1), what does the deposit list?
migration robust z-score: 0.36; migration class with cell-count check: migration z between -2 and 2; enough cells; nuclei per well, duplicate mean: 4988; Outcome: inactive

For SPOP (speckle type BTB/POZ protein), what was measured?
migration robust z-score: 0.95; migration class with cell-count check: migration z between -2 and 2; enough cells; nuclei per well, duplicate mean: 6028; Outcome: inactive

With NPRL2 (NPR2 like, GATOR1 complex subunit), how do the results read?
migration robust z-score: -0.02; migration class with cell-count check: migration z between -2 and 2; enough cells; nuclei per well, duplicate mean: 6215; Outcome: inactive

What is on record for DHX15 (DEAH-box helicase 15)?
migration robust z-score: 0.65; migration class with cell-count check: migration z between -2 and 2; enough cells; nuclei per well, duplicate mean: 5810; Outcome: inactive

For C1orf174 (chromosome 1 open reading frame 174), what was measured?
migration robust z-score: 0.61; migration class with cell-count check: migration z between -2 and 2; enough cells; nuclei per well, duplicate mean: 5418; Outcome: inactive

For IGSF11 (immunoglobulin superfamily member 11), what does the deposit list?
migration robust z-score: -0.3; migration class with cell-count check: migration z between -2 and 2; enough cells; nuclei per well, duplicate mean: 5125; Outcome: inactive
